Results taken from the supplement of paper PMC10849652.
Some of the results follow.

Protein sequences, listed by entry. Tags and fused reporters are not part of them. Lines headed by an entry give the natural chain unless they say otherwise; changes in a name come on top.
UniProt Q9H974: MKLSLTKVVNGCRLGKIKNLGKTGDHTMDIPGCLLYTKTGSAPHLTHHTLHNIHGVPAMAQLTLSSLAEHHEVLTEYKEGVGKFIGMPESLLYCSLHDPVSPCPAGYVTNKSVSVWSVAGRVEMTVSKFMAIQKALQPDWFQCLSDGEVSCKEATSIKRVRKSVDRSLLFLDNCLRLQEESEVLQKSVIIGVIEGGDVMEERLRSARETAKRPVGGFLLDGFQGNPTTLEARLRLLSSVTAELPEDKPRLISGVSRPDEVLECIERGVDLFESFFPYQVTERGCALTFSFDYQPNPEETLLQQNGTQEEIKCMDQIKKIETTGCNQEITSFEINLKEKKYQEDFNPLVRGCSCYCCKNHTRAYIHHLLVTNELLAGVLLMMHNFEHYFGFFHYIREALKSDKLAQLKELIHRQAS
UniProt P28072: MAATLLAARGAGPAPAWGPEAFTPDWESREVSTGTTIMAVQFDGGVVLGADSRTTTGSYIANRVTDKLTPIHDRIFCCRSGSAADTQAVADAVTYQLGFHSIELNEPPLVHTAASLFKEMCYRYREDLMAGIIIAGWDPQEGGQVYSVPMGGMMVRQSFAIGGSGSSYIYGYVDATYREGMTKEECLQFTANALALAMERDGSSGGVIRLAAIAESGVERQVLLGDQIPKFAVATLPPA
UniProt P53801: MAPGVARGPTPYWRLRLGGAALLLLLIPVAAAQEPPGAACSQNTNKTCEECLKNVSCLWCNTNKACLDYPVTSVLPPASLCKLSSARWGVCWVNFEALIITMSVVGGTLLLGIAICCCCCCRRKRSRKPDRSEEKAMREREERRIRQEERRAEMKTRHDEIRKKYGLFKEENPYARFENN
UniProt Q8NDX1: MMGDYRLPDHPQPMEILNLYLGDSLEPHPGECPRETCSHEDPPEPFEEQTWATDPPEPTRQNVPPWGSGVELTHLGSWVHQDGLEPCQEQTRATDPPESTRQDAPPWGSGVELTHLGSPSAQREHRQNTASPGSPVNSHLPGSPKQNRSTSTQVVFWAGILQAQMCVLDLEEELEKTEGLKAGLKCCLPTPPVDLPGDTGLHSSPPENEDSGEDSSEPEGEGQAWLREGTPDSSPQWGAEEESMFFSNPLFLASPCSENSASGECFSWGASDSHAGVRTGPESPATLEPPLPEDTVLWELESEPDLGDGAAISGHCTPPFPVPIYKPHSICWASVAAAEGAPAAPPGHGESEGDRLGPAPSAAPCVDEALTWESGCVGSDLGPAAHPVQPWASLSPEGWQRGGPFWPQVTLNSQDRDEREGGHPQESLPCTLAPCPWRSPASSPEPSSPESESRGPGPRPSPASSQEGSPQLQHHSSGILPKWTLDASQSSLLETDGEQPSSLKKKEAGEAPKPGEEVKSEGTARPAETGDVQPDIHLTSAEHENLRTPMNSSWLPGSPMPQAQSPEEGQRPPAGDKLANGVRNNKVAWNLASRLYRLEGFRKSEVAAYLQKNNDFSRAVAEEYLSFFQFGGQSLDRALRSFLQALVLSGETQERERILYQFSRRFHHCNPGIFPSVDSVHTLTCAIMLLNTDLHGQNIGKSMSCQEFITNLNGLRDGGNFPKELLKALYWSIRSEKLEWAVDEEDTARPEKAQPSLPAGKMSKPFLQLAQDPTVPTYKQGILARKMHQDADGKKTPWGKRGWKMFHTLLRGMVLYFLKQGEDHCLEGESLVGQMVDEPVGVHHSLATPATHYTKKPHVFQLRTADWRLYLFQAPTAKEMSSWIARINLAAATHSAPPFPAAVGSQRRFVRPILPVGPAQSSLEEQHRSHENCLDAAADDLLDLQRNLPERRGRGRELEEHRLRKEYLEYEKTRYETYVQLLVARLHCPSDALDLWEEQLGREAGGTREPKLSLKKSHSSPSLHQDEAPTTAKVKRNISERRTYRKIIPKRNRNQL
UniProt Q9UHX1: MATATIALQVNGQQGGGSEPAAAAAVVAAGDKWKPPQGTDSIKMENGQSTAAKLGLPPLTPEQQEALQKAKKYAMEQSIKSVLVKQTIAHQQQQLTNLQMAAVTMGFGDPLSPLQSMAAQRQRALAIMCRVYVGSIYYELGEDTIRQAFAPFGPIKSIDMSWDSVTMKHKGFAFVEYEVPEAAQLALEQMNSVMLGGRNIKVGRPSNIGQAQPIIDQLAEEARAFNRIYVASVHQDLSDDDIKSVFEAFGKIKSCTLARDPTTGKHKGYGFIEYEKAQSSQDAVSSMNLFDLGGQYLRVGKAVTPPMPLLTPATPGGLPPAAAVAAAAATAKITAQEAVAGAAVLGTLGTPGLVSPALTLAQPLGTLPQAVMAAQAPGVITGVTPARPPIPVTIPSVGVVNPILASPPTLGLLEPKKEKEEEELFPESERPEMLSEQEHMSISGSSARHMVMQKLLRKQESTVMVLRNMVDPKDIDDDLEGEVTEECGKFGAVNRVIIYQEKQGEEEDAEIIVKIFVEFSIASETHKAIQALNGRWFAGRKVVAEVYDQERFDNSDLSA
UniProt Q7Z5L2: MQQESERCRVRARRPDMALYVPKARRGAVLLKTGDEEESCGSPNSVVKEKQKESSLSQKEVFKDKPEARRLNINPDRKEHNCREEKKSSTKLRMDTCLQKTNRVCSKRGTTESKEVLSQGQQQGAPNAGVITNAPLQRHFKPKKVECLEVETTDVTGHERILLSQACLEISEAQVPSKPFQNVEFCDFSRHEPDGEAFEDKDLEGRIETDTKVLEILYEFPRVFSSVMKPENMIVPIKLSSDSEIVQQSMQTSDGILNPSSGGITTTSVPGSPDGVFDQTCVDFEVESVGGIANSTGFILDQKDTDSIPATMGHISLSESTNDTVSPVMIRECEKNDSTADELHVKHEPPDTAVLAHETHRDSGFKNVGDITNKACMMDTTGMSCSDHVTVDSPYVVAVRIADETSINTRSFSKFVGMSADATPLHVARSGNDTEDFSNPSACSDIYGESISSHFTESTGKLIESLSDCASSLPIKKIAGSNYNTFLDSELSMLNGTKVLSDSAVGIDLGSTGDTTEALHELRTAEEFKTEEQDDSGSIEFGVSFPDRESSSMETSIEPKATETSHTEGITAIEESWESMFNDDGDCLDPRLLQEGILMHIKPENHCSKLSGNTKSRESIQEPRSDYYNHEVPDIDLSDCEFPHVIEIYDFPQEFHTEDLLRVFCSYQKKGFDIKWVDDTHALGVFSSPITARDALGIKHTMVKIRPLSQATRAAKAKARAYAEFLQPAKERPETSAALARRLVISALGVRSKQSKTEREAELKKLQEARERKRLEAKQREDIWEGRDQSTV
UniProt Q9ULZ3, whole entry, looked up: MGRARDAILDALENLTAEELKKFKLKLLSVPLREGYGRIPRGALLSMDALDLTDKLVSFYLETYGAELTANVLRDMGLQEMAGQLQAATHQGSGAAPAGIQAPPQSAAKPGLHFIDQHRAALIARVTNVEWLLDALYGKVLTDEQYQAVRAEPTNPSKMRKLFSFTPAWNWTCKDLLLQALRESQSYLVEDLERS
UniProt Q9UJV8: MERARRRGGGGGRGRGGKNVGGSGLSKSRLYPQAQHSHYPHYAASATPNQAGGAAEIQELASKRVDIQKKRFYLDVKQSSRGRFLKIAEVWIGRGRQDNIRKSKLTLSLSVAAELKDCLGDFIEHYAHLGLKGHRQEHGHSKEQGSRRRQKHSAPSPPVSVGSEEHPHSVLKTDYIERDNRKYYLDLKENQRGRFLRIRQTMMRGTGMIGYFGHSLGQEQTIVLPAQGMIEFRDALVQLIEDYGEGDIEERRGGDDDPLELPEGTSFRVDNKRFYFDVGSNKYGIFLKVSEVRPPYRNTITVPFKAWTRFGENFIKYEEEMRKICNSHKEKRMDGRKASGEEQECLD
UniProt Q8N0Z8: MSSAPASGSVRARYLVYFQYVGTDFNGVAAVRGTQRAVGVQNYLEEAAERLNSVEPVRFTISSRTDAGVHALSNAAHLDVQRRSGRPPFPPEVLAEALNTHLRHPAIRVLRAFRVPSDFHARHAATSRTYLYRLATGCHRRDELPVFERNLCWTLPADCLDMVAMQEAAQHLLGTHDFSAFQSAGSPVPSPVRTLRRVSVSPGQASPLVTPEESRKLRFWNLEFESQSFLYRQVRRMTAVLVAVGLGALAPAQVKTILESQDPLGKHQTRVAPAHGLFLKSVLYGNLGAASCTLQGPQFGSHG
UniProt Q9NYI0: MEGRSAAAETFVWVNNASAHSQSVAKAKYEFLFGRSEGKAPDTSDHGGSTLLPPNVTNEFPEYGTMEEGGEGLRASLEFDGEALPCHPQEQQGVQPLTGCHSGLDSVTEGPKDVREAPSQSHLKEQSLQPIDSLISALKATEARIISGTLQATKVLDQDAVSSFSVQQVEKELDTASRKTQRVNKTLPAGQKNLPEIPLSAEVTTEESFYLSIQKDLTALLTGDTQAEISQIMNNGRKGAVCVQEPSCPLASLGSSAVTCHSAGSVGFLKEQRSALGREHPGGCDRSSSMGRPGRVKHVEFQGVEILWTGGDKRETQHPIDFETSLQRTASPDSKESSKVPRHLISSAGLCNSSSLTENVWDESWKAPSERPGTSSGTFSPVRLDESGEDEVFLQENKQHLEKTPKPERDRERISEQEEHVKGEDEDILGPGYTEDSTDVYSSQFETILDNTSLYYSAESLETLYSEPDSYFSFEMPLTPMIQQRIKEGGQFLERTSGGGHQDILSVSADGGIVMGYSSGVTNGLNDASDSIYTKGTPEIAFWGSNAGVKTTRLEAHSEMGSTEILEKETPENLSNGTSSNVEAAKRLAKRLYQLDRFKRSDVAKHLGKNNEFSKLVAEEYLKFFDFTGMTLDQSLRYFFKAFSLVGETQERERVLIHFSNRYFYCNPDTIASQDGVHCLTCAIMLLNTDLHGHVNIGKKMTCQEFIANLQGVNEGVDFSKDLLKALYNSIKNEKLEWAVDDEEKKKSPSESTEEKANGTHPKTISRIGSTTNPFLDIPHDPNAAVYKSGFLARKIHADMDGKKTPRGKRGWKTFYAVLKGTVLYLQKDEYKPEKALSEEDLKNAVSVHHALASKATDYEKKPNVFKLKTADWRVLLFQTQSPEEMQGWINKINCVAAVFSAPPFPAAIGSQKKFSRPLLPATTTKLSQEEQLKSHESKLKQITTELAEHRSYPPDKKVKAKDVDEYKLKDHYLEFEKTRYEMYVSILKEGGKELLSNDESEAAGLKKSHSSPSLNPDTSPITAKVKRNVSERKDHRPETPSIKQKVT
UniProt P35236: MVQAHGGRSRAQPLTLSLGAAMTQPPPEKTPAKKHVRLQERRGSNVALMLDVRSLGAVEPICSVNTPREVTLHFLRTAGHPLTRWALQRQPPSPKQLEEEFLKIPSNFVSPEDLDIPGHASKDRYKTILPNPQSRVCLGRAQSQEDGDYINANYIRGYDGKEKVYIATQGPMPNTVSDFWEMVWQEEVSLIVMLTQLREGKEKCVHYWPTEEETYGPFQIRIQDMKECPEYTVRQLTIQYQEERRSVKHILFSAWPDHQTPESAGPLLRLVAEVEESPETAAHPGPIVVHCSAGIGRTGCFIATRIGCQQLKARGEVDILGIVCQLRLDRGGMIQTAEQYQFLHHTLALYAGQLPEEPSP
UniProt Q8TB72: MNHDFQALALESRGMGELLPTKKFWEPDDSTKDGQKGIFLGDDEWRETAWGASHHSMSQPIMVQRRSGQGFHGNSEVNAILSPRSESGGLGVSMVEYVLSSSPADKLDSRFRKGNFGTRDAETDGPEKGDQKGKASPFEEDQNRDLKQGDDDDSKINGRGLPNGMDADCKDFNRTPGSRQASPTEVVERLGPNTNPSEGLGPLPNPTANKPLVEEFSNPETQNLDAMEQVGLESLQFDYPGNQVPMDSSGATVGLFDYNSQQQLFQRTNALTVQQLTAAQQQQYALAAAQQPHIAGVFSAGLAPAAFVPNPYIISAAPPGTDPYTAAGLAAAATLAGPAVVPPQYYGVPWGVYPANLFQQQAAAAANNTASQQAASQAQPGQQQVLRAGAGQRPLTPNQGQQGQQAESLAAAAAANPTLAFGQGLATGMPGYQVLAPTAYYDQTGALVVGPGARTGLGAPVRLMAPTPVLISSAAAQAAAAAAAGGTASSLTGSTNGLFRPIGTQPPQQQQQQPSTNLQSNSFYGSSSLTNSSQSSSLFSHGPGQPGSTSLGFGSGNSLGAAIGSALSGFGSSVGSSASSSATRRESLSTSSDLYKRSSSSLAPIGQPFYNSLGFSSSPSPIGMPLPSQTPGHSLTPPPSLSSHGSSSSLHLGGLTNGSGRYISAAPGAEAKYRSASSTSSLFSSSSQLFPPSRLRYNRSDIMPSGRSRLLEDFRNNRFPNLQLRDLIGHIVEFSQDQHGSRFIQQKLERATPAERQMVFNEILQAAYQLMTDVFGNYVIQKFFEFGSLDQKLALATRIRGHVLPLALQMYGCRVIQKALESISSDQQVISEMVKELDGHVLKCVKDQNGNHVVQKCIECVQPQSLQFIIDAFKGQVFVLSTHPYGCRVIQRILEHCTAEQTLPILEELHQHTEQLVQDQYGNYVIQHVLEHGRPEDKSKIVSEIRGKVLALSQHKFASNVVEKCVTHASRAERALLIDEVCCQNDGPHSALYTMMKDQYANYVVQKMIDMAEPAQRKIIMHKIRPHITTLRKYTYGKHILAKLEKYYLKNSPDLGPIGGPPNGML

What was measured:
Assay in all cases: log2 fold change, soluble protein after heating vs DMSO (PISA); higher = thermal stabilisation; K562 cells, 10 uM, 30 min; active = over 0.2 and 3.5 SD of the protein, either way, in both replicates (recomputed)
[1] = compound: Cc1ccc(NC(=O)c2ccc(CN3CC[C@H](N(C)C)C3)c(C(F)(F)F)c2)cc1Nc1nccc(-c2cncnc2)n1 [bafetinib]
Procedure, shortened: (§1)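 For each measurement, 10 μM compound was applied for 30 min to K562 cells at 2×10^6 cells/mL. Aliquots were heated for 3 min across 48°C-58°C, pooled, and extracted in PBS with 0.5% NP-40 at 4°C; the supernatant after 21,000xg for 90 min was soluble protein. This was quantified by TMTpro 16plex LC-MS/MS with channel sums equalised, and thermal stability was reported relative to control samples from duplicates, on a log2 fold-change scale.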

[2] = compound: Cc1cccc(CC(=O)N2CCc3c2ccc(-c2cn(C)c4ncnc(N)c24)c3F)n1
Procedure, shortened: as §1

[3] = compound: Cn1cc(-c2ccc3c(c2)CCN3C(=O)Cc2cccc(C(F)(F)F)c2)c2c(N)ncnc21
Procedure, shortened: as §1

[4] = compound: Cn1cncc1[C@@](N)(c1ccc(Cl)cc1)c1ccc2c(c1)c(-c1cccc(Cl)c1)cc(=O)n2C [tipifarnib]
Procedure, shortened: as §1

[5] = compound: Cn1cc(-c2ccc3nnc(C(F)(F)c4ccc5ncccc5c4)n3n2)cn1
Procedure, shortened: as §1

[6] = compound: Cc1cn(-c2cc(NC(=O)c3ccc(C)c(Nc4nccc(-c5cccnc5)n4)c3)cc(C(F)(F)F)c2)cn1 [nilotinib]
Procedure, shortened: as §1

[7] = compound: Cc1nc(Nc2n[nH]c3c2CN(C(=O)N[C@H](CN(C)C)c2ccccc2)C3(C)C)c2sccc2n1
Procedure, shortened: as §1

[8] = compound: Cc1nc(Nc2ncc(C(=O)Nc3c(C)cccc3Cl)s2)cc(N2CCN(CCO)CC2)n1 [dasatinib]
Procedure, shortened: as §1

[9] = compound: Cc1ncc(-c2ccnc(Nc3ccc(S(C)(=O)=O)cc3)n2)n1C(C)C
Procedure, shortened: as §1

[10] = compound: FC(F)(F)c1ccc(/C=C/c2nc(COc3ccc(CCCCn4ccnn4)cc3)co2)cc1 [mubritinib]
Procedure, shortened: as §1

Measured: log2 fold change

PSMB9 (UniProt P28065)
inactive: [1] -0.22 | [2] -0.122 | [3] 0.054 | [4] 0.03

PUS1 (UniProt Q9Y606)
inactive: [1] -0.024 | [2] 0.076 | [3] 0.043 | [5] -0.049 | [4] 0.064

PYGB (UniProt P11216)
inactive: [2] 0 | [7] 0.02 | [8] -0.042 | [9] -0.032 | [3] 0.026 | [5] -0.007 | [4] 0.035 | [10] 0.014
active: [1] -0.317 | [6] -0.358

PYGO2 (UniProt Q9BRQ0)
inactive: [1] -0.033 | [2] -0.105 | [6] 0.046 | [7] -0.045 | [9] -0.057 | [5] 0.055 | [4] -0.043 | [10] -0.01

QTRT2 isoform 4 (UniProt Q9H974)
inactive: [1] -0.033 | [2] 0.002 | [6] 0.016 | [7] -0.009 | [8] 0.036 | [9] -0.045 | [3] 0.051 | [5] 0.026 | [4] -0.007 | [10] 0.039

PTRHD1 (UniProt Q6GMV3)
inactive: [1] -0.067 | [2] 0.024 | [6] 0.08 | [7] -0.032 | [8] -0.007 | [9] -0.061 | [3] 0.111 | [4] 0.028 | [10] 0.043
active: [5] 0.332

PVR (UniProt P15151)
inactive: [1] 0.144 | [2] -0.078 | [8] 0.053 | [3] 0.044 | [4] -0.13 | [10] 0.074

PSMG2 (UniProt Q969U7)
inactive: [1] -0.029 | [2] -0.004 | [6] 0.007 | [7] -0.006 | [8] 0.019 | [9] -0.019 | [3] 0.014 | [5] -0.005 | [4] -0.012 | [10] 0.026

PSMB2, A0A087WVV1
inactive: [1] 0.049 | [2] 0.065 | [6] -0.235 | [7] -0.039 | [8] 0.057 | [9] -0.121 | [5] 0.025 | [4] -0.106 | [10] 0.06

PTK2 (UniProt Q05397)
inactive: [1] -0.023 | [2] -0.004 | [6] 0.007 | [7] 0.081 | [8] -0.003 | [9] 0.026 | [3] 0.036 | [5] -0.016 | [4] -0.027 | [10] 0.01

PTDSS1 (UniProt P48651)
inactive: [1] -0.125 | [2] 0.092 | [6] -0.166 | [7] 0.084 | [8] -0.002 | [9] 0.017 | [3] -0.089 | [5] 0.042 | [4] 0.018 | [10] -0.074

PRXL2A (UniProt Q9BRX8)
inactive: [1] -0.055 | [2] -0.166 | [8] 0.364 | [3] -0.049 | [4] -0.065 | [10] -0.005

PXN (UniProt P49023)
inactive: [1] -0.029 | [2] -0.07 | [6] 0.017 | [7] 0 | [8] 0.022 | [9] -0.011 | [3] 0.017 | [5] -0.072 | [4] 0.034 | [10] 0.013

PSMB6 (UniProt P28072)
inactive: [1] 0.06 | [2] -0.053 | [6] 0.028 | [7] 0.049 | [8] 0.098 | [9] -0.011 | [3] -0.068 | [5] -0.027 | [4] 0.125 | [10] -0.014

PTTG1IP (UniProt P53801)
inactive: [1] -0.105 | [2] -0.053 | [6] -0.061 | [7] 0.054 | [8] -0.002 | [9] -0.099 | [3] 0.036 | [4] 0.036 | [10] -0.012

PSEN1 (UniProt P49768)
inactive: [1] 0.015 | [6] 0.062 | [7] 0.104 | [8] 0.003 | [9] 0.007 | [3] 0.06 | [5] 0.064 | [4] 0.131 | [10] 0.038

PSD2 (UniProt Q9BQI7)
inactive: [6] -0.088 | [7] 0.275 | [9] -0.076 | [5] 0.05 | [10] 0.023

PTPN18 (UniProt Q99952)
inactive: [6] 0.019 | [7] -0.171 | [9] 0.011 | [5] 0.04 | [10] 0.029

PTP4A2 (UniProt Q12974)
active: [9] -0.43
inactive: [1] -0.045 | [6] 0.007 | [7] -0.056 | [8] 0.089 | [3] 0.094 | [5] -0.013 | [4] 0.048 | [10] 0.047

PSMB8 (UniProt P28062)
inactive: [2] 0.034 | [6] 0.047 | [7] -0.067 | [9] 0.108 | [3] -0.055

PTBP2 isoform 3 (UniProt Q9UKA9)
inactive: [2] 0.009 | [4] 0.162

PSD4 (UniProt Q8NDX1)
inactive: [6] 0 | [7] -0.488 | [8] -0.14 | [9] 0.164 | [3] -0.042 | [5] -0.021

PUF60 isoform 2 (UniProt Q9UHX1)
inactive: [1] -0.089 | [8] -0.173 | [3] 0.043 | [5] -0.103 | [4] -0.159 | [10] -0.257

PSMC1 (UniProt G3V4X1)
inactive: [2] -0.579 | [6] -0.195 | [7] 0.042 | [9] -0.046 | [3] 0.066 | [4] 0.479

PRUNE2 isoform 3 (UniProt Q8WUY3)
inactive: [6] 0.196 | [7] -0.124 | [8] -0.061 | [9] 0.079 | [5] 0.012 | [4] -0.173 | [10] -0.058

R3HCC1L (UniProt Q7Z5L2)
inactive: [2] -0.059 | [6] 0.006 | [7] -0.365 | [9] 0.261 | [3] -0.163 | [4] 0.18

PTEN isoform 2 (UniProt P60484)
inactive: [2] 0.158 | [5] -0.087 | [4] -0.212

PSMA3 (UniProt G3V4X5)
inactive: [1] 0.159 | [5] 0.174 | [4] 0.067

PTRH1 (UniProt Q86Y79)
inactive: [2] 0.03 | [8] 0.005 | [3] -0.1 | [5] -0.01

PYCARD isoform 2 (UniProt Q9ULZ3)
inactive: [5] -0.018

PTGER3 isoform 2 (UniProt P43115)
inactive: [5] -0.098

PTPN9 (UniProt P43378)
inactive: [2] 0.039 | [8] -0.054 | [10] -0.312

PSEN2 (UniProt P49810)
inactive: [2] -0.033 | [8] 0.281 | [5] 0.06 | [10] -0.03

PSMA3 (UniProt H0YJ03)
inactive: [8] 0.133 | [3] 0.036 | [5] -0.017 | [4] 0.02

PYROXD1 (UniProt Q8WU10)
inactive: [1] -0.048 | [6] -0.072 | [7] 0.032 | [8] -0.07 | [9] 0.057 | [3] -0.042 | [5] -0.358 | [4] -0.176 | [10] 0.111

PSMC3 (UniProt E9PLG2)
inactive: [1] 0.147 | [8] 0.258 | [10] 0.059

R3HCC1 (UniProt Q9Y3T6)
inactive: [2] -0.071 | [6] -0.068 | [7] -0.261 | [9] -0.276 | [3] -0.092 | [5] -0.246 | [4] -0.03

PSMB5 isoform 3 (UniProt P28074)
inactive: [1] -0.247 | [8] -0.026 | [5] 0.157 | [4] 0.22

PSMA7 isoform 2 (UniProt O14818)
inactive: [1] -0.164 | [6] -0.24 | [7] 0.226 | [9] -0.082 | [3] -0.045 | [4] 0.208 | [10] -0.204

PURG (UniProt Q9UJV8)
inactive: [6] 0.034 | [7] 0.134 | [9] 0.084

PUSL1 (UniProt Q8N0Z8)
inactive: [2] -0.003 | [3] -0.435 | [5] -0.141 | [10] 0.064

PUM1 (UniProt Q14671)
inactive: [2] -0.202 | [8] -0.207 | [3] 0.229

PTPRN2 isoform 3 (UniProt Q92932)
inactive: [1] -0.179 | [6] 0.165 | [7] -0.023 | [8] 0.037 | [9] -0.056 | [3] 0.349 | [10] 0.357

PSMD8 (UniProt K7EK21)
inactive: [3] -0.216

PSD3 (UniProt Q9NYI0)
inactive: [6] -0.117 | [7] 0.029 | [9] 0.014 | [3] -0.002 | [5] 0.071 | [4] -0.062 | [10] -0.035

PSMB10 (UniProt P40306)
inactive: [6] 0.126 | [7] 0.025 | [9] -0.015 | [4] 0.033 | [10] 0.039

PTPN7 isoform 3 (UniProt P35236)
inactive: [3] 0.072 | [5] -0.062 | [4] -0.314

PSIP1 (UniProt V9GYT7)
inactive: [2] 0.014 | [6] -0.088 | [7] 0.015 | [8] -0.051 | [9] -0.025 | [3] -0.015 | [5] -0.039 | [4] -0.059 | [10] 0.011

PUM2 isoform 3 (UniProt Q8TB72)
inactive: [8] 0.033 | [3] 0.051
